Reference: patent US20060127980A1, “Human excitatory amino acid transporter-2 gene promoter and uses thereof” (priority 2003, published 2006)
For at least one compound, name, drawing or mass did not settle the structure.

Tested on: hEAAT2 promoter activity, mRNA levels and protein levels
Assay: Pathway-specific inhibitors on modulated hEAAT2 promoter activity, mRNA and protein in PHFA
Type: cell-based, human
Conditions: PDTC 100 μM, PD 50 μM; for effect on EGF (or TGF-α) enhancement of hEAAT2 promoter activity, mRNA and protein levels: EGF 30 ng/ml; for effect on EGF (or TGF-α) enhancement of hEAAT2 promoter activity, mRNA and protein levels / effect on bromo-cAMP (or dbcAMP) enhancement of hEAAT2 expression: KT5720 5 μM, AG1478 1 μM, wortmannin 100 nM; for effect on bromo-cAMP (or dbcAMP) enhancement of hEAAT2 expression: bromo-cAMP 250 μM
Procedure: FIG. 5A-E. Effect of pharmacological inhibitors on hEAAT2 promoter activity, and mRNA and protein expression in PHFA following various treatment protocols. A. hEAAT2 promoter activity in PHFA, either untreated (−) or treated with EGF (30 ng/ml), in the absence (−) or presence (+) of KT5720 (5 μM), AG1478 (1 μM), PDTC (100 μM), wortmannin (WRT) (100 nM) or PD98049 (PD) (50 μM). B. hEAAT2 promoter activity in PHFA, either untreated (−) or treated with bromo-cAMP (250 μM) in the absence (−) or presence (+) of KT5720 (5 μM), AG1478 (1 μM), PDTC (100 μM), wortmannin (WRT) (100 nM) or PD98049 (PD) (50 μM). C. hEAAT2 promoter activity in PHFA, either untreated (−) or treated with TNF-α (200 U/ml), in the absence (−) or presence (+) of KT5720 (5 μM), AG1478 (1 μM), PDTC (100 μM), wortmannin (WRT) (100 nM) or PD98049 (PD) (50 μM). D. The effect of the various treatment protocols on hEAAT2 and GAPDH mRNA levels. Upper panel presents relative hEAAT2 RNA expression versus GAPDH expression relative to control untreated or treated samples based on scanning of autoradiograms. Lower panel, actual Northern blots. E. The effect of the various treatment protocols on EAAT2 and ACTIN protein levels. Upper panel presents relative EAAT2 protein expression versus ACTIN expression relative to control untreated or treated samples based on scanning of autoradiograms. Individual experiments were performed 3 times using triplicate samples and S.D. from the mean is presented.
Biochemical Basis for Positive and Negative Regulation of hEAAT2 Expression in PHFA. To define the biochemical pathways relevant to the regulation of hEAAT2 expression in PHFA resulting from the different treatment protocols, a pharmacological approach was employed. This involved the use of well-characterized pathway-specific inhibitors and determining effects on hEAAT2 promoter activity, mRNA levels and protein levels (FIG. 5). The inhibitors included, KT5720 (a protein kinase A. (PKA) inhibitor), AG1478 (a tyrosine kinase inhibitor), worttnannin (a phosphatidylinositol 3-kinase (PI-3K) inhibitor), pyrrolidinedithiocarbamate (PDTC, an inhibitor of NF-κB activation) and PD98059 (a mitogen-activated kinase (MEK1/MEK2) inhibitor) (Zelenaia et al., 2000, Mol Pharmacol 57(4):667-678).

Structure (SMILES)	effect on EGF (or TGF-α) enhancement of hEAAT2 promoter activity, mRNA and protein levels	effect on bromo-cAMP (or dbcAMP) enhancement of hEAAT2 expression	effect on TNF-α-decreased hEAAT2 promoter, mRNA and protein levels (cotreatment with TNF-α 200 U/ml)
S=C(S)N1CCCC1 [PDTC, pyrrolidinedithiocarbamate]	abolished	eliminated	restore hEAAT2 promoter, mRNA and protein levels to that observed in untreated PHFA
COC[C@H]1OC(=O)c2coc3c2[C@@]1(C)C1=C(C3=O)[C@@H]2CCC(=O)[C@@]2(C)C[C@H]1OC(C)=O [wortmannin]	abolished	eliminated	
